Data as given in PubChem BioAssay AID504808 (Drosophila RNAi Screening Center, 2011).
In all, the deposit lists about 21,000 reagents; shown is a random part of those that have a named target and a result. In the full data, 18 (0.084%) got an active call. 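Raw counts without plate normalisation, one of two replicates; the ratio scores behind the calls were not deposited.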 Not given: the amount of reagent, the time to read-out.

- Purpose: 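Genes whose loss lifts activity of an E2F-responsive reporter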 (primary screen)
- Cell system: Drosophila S2 cells
- Knock-down reagent: long dsRNA against Drosophila genes
- Read-out: 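Firefly luciferase driven by E2F sites, normalised to Renilla luciferase on the same minimal promoter, measured by plate reader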
- Direction: E2F firefly: higher = more E2F reporter activity; Renilla normaliser: higher = more normaliser reporter signal
- Active means: 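a knock-down counted as active when the firefly/Renilla E2F signal rose above 50%, a threshold chosen arbitrarily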

{"predicted target": "ct (cut)", "dsRNA": "DRSC18757", "E2F firefly, rep 1": 38878, "Renilla normaliser, rep 1": 3270, "activity call": "inactive"}
{"predicted target": "CG12693", "dsRNA": "DRSC17882", "E2F firefly, rep 1": 1.14e5, "Renilla normaliser, rep 1": 5571, "activity call": "inactive"}
{"predicted target": "CG4968", "dsRNA": "DRSC02794", "E2F firefly, rep 1": 76992, "Renilla normaliser, rep 1": 3472, "activity call": "inactive"}
{"predicted target": "Arpc4 (Actin-related protein 2/3 complex, subunit 4)", "dsRNA": "DRSC02917", "E2F firefly, rep 1": 1.64e5, "Renilla normaliser, rep 1": 5683, "activity call": "inactive"}
{"predicted target": "CG5906", "dsRNA": "DRSC10557", "E2F firefly, rep 1": 1.38e5, "Renilla normaliser, rep 1": 7025, "activity call": "inactive"}
{"predicted target": "CG12061", "dsRNA": "DRSC20715", "E2F firefly, rep 1": 1.39e5, "Renilla normaliser, rep 1": 6939, "activity call": "inactive"}
{"predicted target": "Sirt6 (Sirtuin 6)", "dsRNA": "DRSC16010", "E2F firefly, rep 1": 1.59e5, "Renilla normaliser, rep 1": 6517, "activity call": "inactive"}
{"predicted target": "CrebA (Cyclic-AMP response element binding protein A)", "dsRNA": "DRSC11122", "E2F firefly, rep 1": 65153, "Renilla normaliser, rep 1": 3201, "activity call": "inactive"}
{"predicted target": "CG11807", "dsRNA": "DRSC06087", "E2F firefly, rep 1": 75894, "Renilla normaliser, rep 1": 3276, "activity call": "inactive"}
{"predicted target": "CG11164", "dsRNA": "DRSC19392", "E2F firefly, rep 1": 1.26e5, "Renilla normaliser, rep 1": 5980, "activity call": "inactive"}
{"predicted target": "mEFTs (mitochondrial translation elongation factor Ts)", "dsRNA": "DRSC02953", "E2F firefly, rep 1": 81822, "Renilla normaliser, rep 1": 3247, "activity call": "inactive"}
{"predicted target": "CG1231", "dsRNA": "DRSC08267", "E2F firefly, rep 1": 92829, "Renilla normaliser, rep 1": 3928, "activity call": "inactive"}
{"predicted target": "Ugt37C1 (UDP-glycosyltransferase family 37 member C1)", "dsRNA": "DRSC07416", "E2F firefly, rep 1": 1.60e5, "Renilla normaliser, rep 1": 4767, "activity call": "inactive"}
{"predicted target": "Or74a (Odorant receptor 74a)", "dsRNA": "DRSC11245", "E2F firefly, rep 1": 1.63e5, "Renilla normaliser, rep 1": 8765, "activity call": "inactive"}
{"predicted target": "GV1", "dsRNA": "DRSC08228", "E2F firefly, rep 1": 1.05e5, "Renilla normaliser, rep 1": 4712, "activity call": "inactive"}
{"predicted target": "CG14840", "dsRNA": "DRSC14964", "E2F firefly, rep 1": 94599, "Renilla normaliser, rep 1": 5212, "activity call": "inactive"}
{"predicted target": "CG5151", "dsRNA": "DRSC10487", "E2F firefly, rep 1": 99241, "Renilla normaliser, rep 1": 7106, "activity call": "inactive"}
{"predicted target": "Spn85F (Serpin 85F)", "dsRNA": "DRSC14545", "E2F firefly, rep 1": 55899, "Renilla normaliser, rep 1": 4754, "activity call": "inactive"}
{"predicted target": "CG14505", "dsRNA": "DRSC06476", "E2F firefly, rep 1": 1.24e5, "Renilla normaliser, rep 1": 4753, "activity call": "inactive"}
